Measurements taken from paper doi:10.1101/2022.06.22.497213.
Results are given in words; binding and its absence hold for the method and conditions named. In cells and extracts the contact can be indirect. Some binding calls cover weakened binding; strength is not graded here.

Protein sequences, listed by entry. Tags and fused reporters are not part of them. Residues count along the entry.
UniProt Q92905, 1-257: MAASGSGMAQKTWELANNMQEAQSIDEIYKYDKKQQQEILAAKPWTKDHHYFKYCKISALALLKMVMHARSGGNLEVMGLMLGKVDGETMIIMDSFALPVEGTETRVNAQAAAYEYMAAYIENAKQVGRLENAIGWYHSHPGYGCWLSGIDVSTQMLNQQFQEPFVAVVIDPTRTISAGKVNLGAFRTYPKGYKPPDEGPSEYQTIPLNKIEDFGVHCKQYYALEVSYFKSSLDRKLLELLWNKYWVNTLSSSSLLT
UniProt Q14671, 828-1176: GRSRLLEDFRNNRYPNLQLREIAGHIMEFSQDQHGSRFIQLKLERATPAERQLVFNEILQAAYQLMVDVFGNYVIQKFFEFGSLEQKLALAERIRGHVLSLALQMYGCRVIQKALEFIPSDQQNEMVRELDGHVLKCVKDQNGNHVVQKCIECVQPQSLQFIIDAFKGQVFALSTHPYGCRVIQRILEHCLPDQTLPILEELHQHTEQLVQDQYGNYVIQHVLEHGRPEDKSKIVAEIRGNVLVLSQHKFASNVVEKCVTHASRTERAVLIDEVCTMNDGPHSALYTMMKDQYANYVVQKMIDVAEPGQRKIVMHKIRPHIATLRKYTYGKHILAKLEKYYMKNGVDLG

Target: GST::CSN5^MPN (human) (UniProt Q92905)
Test: pull-down

In the case of “His6::PUM1^RBD (from UniProt Q14671 828-1176) (domain or fragment)”, the binding is reported as “binds”.
